# From article PMC10121161
# The chains behind the UniProt entries cited, without tags or fusion partners.
# UniProt Q09065: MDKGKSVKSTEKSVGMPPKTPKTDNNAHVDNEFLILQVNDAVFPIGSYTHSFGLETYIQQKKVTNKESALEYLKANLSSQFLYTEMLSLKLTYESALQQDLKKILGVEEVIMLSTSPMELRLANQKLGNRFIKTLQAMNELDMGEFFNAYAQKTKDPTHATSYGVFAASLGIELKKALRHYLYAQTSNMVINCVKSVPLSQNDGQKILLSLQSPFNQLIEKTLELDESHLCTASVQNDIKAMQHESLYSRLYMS
# No constants are given. Whether binding was seen depends on the method and setting. Some binding calls cover weakened binding; strength is not graded here. Sequences can lack the tags named with a protein.
# Target: T1, HpUreDstr (HpUreD with C-terminal Strep-tag II), wild type, from pHpUreGFDstr (Helicobacter pylori) (UniProt Q09067)
# T1 sequence: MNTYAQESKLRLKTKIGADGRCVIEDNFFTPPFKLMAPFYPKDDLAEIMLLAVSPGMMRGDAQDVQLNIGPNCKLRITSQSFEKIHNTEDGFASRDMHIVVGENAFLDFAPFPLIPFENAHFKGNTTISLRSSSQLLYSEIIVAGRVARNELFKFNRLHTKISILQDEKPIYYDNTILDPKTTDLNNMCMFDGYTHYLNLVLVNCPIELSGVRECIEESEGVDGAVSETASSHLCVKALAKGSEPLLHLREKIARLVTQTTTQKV
# Assay: co-purification (Strep-Tactin affinity chromatography); HpUreDstr coexpressed with HpUreF and HpUreG in E. coli; lysate with 0.5 mM GDP and 1 mM MgSO4 loaded on Strep-Tactin XT resin; 50 mM Hepes, 200 mM NaCl, 1 mM TCEP-HCl (pH 7.5); eluted with 50 mM D-biotin
substance,measurement,value
"HpUreF, wild type, from pHpUreGFDstr (from UniProt Q09065 1-254)",binding,binds
